For 36 targets, log2 fold change results are on record in the supplement of paper PMC12819154, “High-throughput peptide-centric local stability assay extends protein–ligand identification to membrane proteins, tissues and bacteria” (Nature Structural & Molecular Biology, 2025).

By UniProt entry, the sequences of proteins in these tests, tags left out. Where a name states a change or a piece, a line headed by the entry shows the natural chain unless it says otherwise.
UniProt Q8R4N0: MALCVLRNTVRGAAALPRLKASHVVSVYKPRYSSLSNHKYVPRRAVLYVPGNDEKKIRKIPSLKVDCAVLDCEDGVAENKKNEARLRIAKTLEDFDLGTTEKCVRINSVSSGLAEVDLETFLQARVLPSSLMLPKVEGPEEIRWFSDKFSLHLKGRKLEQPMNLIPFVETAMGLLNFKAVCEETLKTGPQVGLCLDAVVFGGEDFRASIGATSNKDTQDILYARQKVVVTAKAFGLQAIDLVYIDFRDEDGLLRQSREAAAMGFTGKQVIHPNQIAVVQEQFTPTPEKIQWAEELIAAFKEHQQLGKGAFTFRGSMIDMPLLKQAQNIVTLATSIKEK
UniProt Q8VE18: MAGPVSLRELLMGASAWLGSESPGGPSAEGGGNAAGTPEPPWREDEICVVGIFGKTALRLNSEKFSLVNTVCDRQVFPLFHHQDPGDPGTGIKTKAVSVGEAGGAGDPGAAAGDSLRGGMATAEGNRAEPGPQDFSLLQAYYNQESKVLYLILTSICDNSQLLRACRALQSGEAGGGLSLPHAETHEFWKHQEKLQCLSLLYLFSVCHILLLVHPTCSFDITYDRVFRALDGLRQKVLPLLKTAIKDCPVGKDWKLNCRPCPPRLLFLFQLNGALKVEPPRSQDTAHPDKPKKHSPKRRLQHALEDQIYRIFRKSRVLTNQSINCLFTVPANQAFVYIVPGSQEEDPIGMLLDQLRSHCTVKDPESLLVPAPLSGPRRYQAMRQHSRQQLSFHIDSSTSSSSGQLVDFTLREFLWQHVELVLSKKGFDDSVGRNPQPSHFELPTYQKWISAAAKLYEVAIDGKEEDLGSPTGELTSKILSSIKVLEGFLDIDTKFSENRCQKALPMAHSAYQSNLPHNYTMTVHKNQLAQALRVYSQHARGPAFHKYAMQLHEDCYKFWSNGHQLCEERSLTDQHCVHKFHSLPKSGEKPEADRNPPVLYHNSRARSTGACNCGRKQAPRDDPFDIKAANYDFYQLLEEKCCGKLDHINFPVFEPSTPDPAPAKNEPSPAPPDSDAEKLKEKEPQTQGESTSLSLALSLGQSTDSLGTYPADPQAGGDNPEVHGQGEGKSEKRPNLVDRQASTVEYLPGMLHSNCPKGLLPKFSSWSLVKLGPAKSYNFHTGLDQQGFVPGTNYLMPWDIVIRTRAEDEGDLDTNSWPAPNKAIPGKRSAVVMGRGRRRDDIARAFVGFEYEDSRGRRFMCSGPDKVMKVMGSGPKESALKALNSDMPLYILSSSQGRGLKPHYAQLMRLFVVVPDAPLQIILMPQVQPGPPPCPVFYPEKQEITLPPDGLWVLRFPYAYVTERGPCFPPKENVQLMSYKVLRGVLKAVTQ
UniProt Q8R2V3: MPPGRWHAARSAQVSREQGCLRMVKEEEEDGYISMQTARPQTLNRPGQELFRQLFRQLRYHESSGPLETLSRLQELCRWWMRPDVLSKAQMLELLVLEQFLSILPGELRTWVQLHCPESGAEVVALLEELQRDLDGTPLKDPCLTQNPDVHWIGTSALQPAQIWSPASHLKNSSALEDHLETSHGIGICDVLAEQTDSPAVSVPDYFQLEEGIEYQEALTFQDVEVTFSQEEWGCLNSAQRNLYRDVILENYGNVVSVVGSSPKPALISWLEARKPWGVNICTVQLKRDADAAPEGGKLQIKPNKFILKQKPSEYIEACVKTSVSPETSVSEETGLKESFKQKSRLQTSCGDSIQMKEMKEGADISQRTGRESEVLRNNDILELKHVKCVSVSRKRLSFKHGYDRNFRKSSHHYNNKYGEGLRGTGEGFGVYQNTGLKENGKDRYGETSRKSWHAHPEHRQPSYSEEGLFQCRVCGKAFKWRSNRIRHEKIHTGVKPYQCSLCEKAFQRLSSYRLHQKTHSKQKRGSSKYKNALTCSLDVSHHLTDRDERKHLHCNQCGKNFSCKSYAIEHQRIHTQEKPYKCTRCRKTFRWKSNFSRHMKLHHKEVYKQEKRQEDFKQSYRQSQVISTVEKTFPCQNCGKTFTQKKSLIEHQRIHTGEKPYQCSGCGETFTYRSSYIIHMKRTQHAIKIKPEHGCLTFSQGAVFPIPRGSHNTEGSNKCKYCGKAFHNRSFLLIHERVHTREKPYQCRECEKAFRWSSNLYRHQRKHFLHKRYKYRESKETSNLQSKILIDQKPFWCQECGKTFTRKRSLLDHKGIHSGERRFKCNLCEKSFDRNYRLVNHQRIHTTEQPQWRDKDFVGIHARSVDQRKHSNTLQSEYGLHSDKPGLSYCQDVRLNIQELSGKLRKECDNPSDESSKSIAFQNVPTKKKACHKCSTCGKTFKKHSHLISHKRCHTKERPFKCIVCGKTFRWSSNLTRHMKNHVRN
UniProt Q8VDG7, whole entry: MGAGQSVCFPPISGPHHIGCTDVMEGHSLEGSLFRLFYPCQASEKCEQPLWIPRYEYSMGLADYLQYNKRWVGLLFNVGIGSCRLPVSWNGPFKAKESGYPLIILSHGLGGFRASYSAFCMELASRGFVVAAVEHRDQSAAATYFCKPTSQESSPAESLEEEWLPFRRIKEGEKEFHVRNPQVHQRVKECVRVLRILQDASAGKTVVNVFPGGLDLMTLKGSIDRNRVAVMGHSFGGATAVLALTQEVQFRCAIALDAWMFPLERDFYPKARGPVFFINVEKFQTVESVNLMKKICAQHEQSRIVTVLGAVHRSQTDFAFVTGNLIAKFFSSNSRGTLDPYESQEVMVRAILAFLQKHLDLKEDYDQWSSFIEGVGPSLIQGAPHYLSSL
UniProt Q8VDG3: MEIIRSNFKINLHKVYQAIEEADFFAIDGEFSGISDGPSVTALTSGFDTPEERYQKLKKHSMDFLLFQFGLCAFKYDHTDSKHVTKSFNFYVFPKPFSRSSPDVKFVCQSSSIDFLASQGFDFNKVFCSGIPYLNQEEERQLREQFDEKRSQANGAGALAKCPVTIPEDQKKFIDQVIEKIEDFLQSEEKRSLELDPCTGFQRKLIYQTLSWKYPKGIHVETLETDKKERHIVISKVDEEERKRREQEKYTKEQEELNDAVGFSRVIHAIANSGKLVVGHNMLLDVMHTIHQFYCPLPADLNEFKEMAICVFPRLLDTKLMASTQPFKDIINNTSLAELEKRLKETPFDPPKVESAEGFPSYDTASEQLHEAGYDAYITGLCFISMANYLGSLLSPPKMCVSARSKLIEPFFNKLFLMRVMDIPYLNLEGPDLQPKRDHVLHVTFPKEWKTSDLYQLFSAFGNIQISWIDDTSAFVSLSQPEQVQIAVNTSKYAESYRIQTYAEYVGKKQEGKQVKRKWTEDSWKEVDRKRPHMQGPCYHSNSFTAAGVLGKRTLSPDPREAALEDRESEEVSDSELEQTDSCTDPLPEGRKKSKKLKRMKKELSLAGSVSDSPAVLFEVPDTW
UniProt Q8R5M0: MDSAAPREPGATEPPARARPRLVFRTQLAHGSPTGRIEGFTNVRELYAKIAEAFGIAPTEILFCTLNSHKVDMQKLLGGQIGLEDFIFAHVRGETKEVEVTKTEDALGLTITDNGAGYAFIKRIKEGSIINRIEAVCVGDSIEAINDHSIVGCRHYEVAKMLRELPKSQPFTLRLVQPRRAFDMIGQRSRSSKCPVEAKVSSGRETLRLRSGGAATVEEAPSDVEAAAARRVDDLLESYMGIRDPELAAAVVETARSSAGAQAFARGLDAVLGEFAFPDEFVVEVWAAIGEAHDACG
UniProt Q8R4C2: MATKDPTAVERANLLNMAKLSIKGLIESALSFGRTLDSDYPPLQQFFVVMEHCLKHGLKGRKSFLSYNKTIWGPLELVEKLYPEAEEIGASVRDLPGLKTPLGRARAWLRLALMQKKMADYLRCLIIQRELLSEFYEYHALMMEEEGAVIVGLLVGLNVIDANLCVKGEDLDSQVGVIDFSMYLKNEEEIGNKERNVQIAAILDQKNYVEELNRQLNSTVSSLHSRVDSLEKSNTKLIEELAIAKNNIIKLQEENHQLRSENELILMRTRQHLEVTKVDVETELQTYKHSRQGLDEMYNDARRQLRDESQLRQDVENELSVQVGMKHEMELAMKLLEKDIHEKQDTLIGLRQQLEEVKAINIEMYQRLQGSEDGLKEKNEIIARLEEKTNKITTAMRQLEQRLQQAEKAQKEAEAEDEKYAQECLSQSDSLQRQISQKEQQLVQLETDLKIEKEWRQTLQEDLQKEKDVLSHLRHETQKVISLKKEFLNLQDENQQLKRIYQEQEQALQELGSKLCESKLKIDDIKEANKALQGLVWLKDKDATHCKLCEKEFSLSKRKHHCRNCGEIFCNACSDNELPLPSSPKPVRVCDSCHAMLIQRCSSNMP
UniProt Q8VBW8: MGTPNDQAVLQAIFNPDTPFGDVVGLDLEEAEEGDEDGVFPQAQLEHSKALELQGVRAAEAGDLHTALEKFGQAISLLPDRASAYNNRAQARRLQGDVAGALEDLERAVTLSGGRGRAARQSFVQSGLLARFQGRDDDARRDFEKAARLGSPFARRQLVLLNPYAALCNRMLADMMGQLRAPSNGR
UniProt Q8VEB3: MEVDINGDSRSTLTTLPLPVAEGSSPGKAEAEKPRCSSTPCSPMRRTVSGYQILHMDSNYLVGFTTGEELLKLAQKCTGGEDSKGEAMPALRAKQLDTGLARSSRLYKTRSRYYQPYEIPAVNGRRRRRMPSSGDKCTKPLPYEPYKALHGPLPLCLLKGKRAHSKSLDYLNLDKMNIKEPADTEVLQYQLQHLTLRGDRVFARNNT
UniProt Q8VDS3, whole entry: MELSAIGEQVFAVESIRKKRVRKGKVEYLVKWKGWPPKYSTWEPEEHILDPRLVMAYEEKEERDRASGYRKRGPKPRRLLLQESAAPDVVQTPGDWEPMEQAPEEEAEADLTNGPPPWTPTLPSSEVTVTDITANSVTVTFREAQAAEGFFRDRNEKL
UniProt Q8R3L8: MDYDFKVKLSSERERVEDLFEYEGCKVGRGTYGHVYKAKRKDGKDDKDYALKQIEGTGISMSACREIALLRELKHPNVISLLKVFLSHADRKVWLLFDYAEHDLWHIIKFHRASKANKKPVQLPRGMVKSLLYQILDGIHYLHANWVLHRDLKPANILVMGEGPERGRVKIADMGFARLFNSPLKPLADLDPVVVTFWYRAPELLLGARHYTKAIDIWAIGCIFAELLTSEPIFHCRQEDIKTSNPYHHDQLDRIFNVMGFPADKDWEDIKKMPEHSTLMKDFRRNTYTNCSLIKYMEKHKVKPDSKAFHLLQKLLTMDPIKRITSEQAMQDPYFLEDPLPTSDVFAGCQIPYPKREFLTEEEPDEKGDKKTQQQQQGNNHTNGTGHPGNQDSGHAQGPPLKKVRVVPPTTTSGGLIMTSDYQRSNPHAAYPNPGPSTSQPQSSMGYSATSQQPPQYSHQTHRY
UniProt Q8R3F9: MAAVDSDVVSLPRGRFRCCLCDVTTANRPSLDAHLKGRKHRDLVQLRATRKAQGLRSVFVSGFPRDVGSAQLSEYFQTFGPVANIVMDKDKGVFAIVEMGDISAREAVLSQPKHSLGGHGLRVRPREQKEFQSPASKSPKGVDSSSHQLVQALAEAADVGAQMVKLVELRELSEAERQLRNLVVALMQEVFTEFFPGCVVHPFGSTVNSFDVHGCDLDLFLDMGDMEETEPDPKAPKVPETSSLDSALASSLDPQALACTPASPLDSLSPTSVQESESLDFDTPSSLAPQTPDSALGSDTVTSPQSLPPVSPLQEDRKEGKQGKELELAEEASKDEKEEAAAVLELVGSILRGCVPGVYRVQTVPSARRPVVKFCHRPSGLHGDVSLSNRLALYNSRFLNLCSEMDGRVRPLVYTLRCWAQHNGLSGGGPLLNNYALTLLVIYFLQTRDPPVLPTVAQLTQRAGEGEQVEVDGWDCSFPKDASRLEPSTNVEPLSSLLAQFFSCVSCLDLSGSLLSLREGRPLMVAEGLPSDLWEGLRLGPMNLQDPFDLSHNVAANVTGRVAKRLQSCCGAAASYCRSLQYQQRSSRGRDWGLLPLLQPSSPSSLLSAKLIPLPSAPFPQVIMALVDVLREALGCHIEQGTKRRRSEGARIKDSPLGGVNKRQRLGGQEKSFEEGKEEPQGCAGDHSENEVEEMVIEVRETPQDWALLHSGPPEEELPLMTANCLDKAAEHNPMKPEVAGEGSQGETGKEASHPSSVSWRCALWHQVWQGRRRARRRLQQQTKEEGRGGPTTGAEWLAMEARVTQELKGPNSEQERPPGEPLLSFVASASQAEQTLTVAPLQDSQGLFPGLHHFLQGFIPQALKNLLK
UniProt Q8VC10: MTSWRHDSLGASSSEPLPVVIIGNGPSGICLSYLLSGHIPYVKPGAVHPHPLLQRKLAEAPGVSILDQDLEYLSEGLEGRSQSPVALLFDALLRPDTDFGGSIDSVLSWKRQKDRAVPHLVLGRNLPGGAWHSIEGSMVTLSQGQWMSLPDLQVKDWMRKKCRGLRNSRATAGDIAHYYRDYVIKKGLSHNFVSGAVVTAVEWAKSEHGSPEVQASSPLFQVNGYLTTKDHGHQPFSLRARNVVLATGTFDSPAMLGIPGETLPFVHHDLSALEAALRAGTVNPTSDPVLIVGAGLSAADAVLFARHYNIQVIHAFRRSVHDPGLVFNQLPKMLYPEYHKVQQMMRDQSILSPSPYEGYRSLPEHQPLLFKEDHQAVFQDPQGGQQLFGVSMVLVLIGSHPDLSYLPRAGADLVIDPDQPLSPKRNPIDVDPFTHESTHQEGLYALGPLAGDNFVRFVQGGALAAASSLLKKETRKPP

The other results are listed elsewhere or left out. Small differences around the control level are noise.

Compound in this assay: CN[C@@H]1C[C@H]2O[C@@](C)([C@@H]1OC)n1c3ccccc3c3c4c(c5c6ccccc6n2c5c31)C(=O)NC4 [staurosporine]
Kind of assay: log2 fold change of tryptic peptide abundance, ligand vs vehicle (limited proteolysis) (log2 ratio); higher = more trypsin-susceptible (destabilized). The settings on record: ligand concentration: 20 uM; sample: mouse liver crude lysate; replicate design: treated separately.
For the target “UniProt Q8VC97 (peptide sequence: KHNMVVVSPILER, peptide start residue: 157)”, the log2 fold change is -0.417.

For “UniProt Q8VD62 (peptide sequence: QLAITHHVLSGK, peptide start residue: 164)”, the log2 fold change was -0.194.

For the target “UniProt Q8R4V5 (peptide sequence: LLIPVTCEFPR, peptide start residue: 350)”, the log2 fold change is -0.168.

“UniProt Q8R4N0 (peptide sequence: GSMIDMPLLK, peptide start residue: 314)”: the log2 fold change is 0.213.

For the target “UniProt Q8VE18 (peptide sequence: RPNLVDR, peptide start residue: 733)”, the log2 fold change was -0.624.

“UniProt Q8VH51 (peptide sequence: KDENKLNSANGHEER, peptide start residue: 17)”: the log2 fold change was -0.622.

Regarding “UniProt Q8R2V3 (peptide sequence: KPWGVNICTVQLKR, peptide start residue: 275)”, the log2 fold change turned out to be 0.454.

For the target “UniProt Q8VDG7 (peptide sequence: AILAFLQK, peptide start residue: 350)”, the log2 fold change is -0.618.

For “UniProt Q8R3F5 (peptide sequence: YTHPQHIR, peptide start residue: 304)”, the log2 fold change was found to be 0.228.

Take “UniProt Q8VE19 (peptide sequence: AVQGVTVDPYFHDR, peptide start residue: 226)”: the log2 fold change was -0.493.

For “UniProt Q8R3P2 (peptide sequence: HSMTNLPAYPAPQAPHR, peptide start residue: 216)”, the log2 fold change worked out at 0.232.

For the target “UniProt Q8VCW8 (peptide sequence: KALEAISR, peptide start residue: 340)”, the log2 fold change is -0.17.

Turning to “UniProt Q8VCV1 (peptide sequence: KTYCFDAFPSIDKISK, peptide start residue: 239)”, the log2 fold change was -0.228.

On to “UniProt Q8VCB1 (peptide sequence: MYSSYSVEPK, peptide start residue: 394)”, for which the log2 fold change was -0.201.

In the case of “UniProt Q8VDG3 (peptide sequence: CPVTIPEDQKK, peptide start residue: 162)”, the log2 fold change was -0.336.

Consider “UniProt Q8VCT4 (peptide sequence: QKTEDELLETSLK, peptide start residue: 287)”, for which the log2 fold change is -0.416.

“UniProt Q8R5M0 (peptide sequence: SSAGAQAFAR, peptide start residue: 257)”: the log2 fold change stood at 0.00711.

On to “UniProt Q8VDG6 (peptide sequence: ALAAAASDPR, peptide start residue: 197)”, for which the log2 fold change is -1.47.

As for “UniProt Q8R4C2 (peptide sequence: QLNSTVSSLHSR, peptide start residue: 215)”, the log2 fold change is 0.166.

“UniProt Q8VBW8 (peptide sequence: QSFVQSGLLAR, peptide start residue: 121)”: the log2 fold change turned out to be 0.0731.

In the case of “UniProt Q8VEJ1 (peptide sequence: MDLIEHYGK, peptide start residue: 180)”, the log2 fold change came to 0.117.

As to “UniProt Q8VEB3 (peptide sequence: ALHGPLPLCLLK, peptide start residue: 148)”, the log2 fold change is 0.381.

Regarding “UniProt Q8R367 (peptide sequence: NVTLILVGNK, peptide start residue: 110)”, the log2 fold change was -0.0907.

“UniProt Q8VDN2 (peptide sequence: DMDELKK, peptide start residue: 31)”: the log2 fold change is -0.156.

“UniProt Q8VCC6 (peptide sequence: HAGGGAGKPGGSWER, peptide start residue: 251)”: the log2 fold change is 0.846.

As to “UniProt Q8VCX6 (peptide sequence: KHQQGLGDR, peptide start residue: 411)”, the log2 fold change was -0.252.

Regarding “UniProt Q8R4E9 (peptide sequence: ARPPAEPGSDQPAPLAR, peptide start residue: 48)”, the log2 fold change was -0.147.

With “UniProt Q8VCG3 (peptide sequence: LVTCTGYHQVR, peptide start residue: 198)”, the log2 fold change was 0.57.

Turning to “UniProt Q8VD33 (peptide sequence: LSHYTDAIKDCEK, peptide start residue: 132)”, the log2 fold change is -0.553.

Consider “UniProt Q8VDS3 (peptide sequence: GKVEYLVK, peptide start residue: 24)”, for which the log2 fold change turned out to be 0.332.

On to “UniProt Q8R2W9 (peptide sequence: ETVSKEDLAR, peptide start residue: 282)”, for which the log2 fold change is -0.122.

In the case of “UniProt Q8R3L8 (peptide sequence: EFLTEEEPDEKGDKK, peptide start residue: 357)”, the log2 fold change is -0.92.

As to “UniProt Q8R314 (peptide sequence: FSNIMEIR, peptide start residue: 196)”, the log2 fold change was found to be 0.294.

Turning to “UniProt Q8R3F9 (peptide sequence: VRPLVYTLR, peptide start residue: 409)”, the log2 fold change worked out at 0.61.

For “UniProt Q8VC10 (peptide sequence: FVQGGALAAASSLLKK, peptide start residue: 457)”, the log2 fold change was -0.354.

As to “UniProt Q8VE92 (peptide sequence: YEREQYVDR, peptide start residue: 343)”, the log2 fold change came to 0.243.
